Assay results

Data taken from PubChem BioAssay AID1159506, deposited by NCATS (2015).

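Luminescence from an EWS-FLI1 target-promoter (NR0B1) reporter, set against a CMV-promoter reporter, two days after silencing single genes in TC32 Ewing sarcoma cells. Each siRNA was applied at 20 nM. A z-score of the log NR0B1-over-CMV signal, less the median of siRNAs with the same seed; more negative means a stronger specific loss of the NR0B1 reporter.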

This is part of the screen; most of the strongest results are not listed here. Sequences are the guide (antisense) strand, without overhang.

Sequence | target gene | seed-corrected z-score
AAUCUUGCAAUGAGUCUCC | CNKSR2 | 0.04385
UUAGGUAGUACAUGAUGCC | SLC6A9 | 0.05027
UUAGCUAGAAUAAAGAAGG | TMSB4Y | -0.2241
AUUGUCUCCGGGACAGUUG | CTGF | 0.973
AACAUCACCAGACAGAACG | OTOG | 0.377
UCUGAGAAUAGGUUCACGG | MYBBP1A | -0.2069
UAAUAGGUAAUCUUUGCUC | LMAN1 | 0.0915
AAUAAGACAGUUCCAAGAC | TUBA1C | -0.455
UUCGUUUGAACUUAAUUCC | DDX21 | -0.2544
UAGUAGUAAUAGAUAAGCC | RBM44 | -0.03819
UAUAGAGAUAUUCAUACCC | IL23R | 0.0772
UUCCUUUAUAAAUUCGGCC | CHI3L1 | -0.6873
UUAAGGACAUGGAAGUAGC | NBEAL2 | 0.6331
UUCUCGAUGCCCAUAAUGU | NR2F1 | -1.162
UUUCAUUGGAGAUAGGGUC | LOC646522 | -0.1704
UGAACUCACAGUAUUCCCG | RHBDF2 | -0.4955
UGAUGGACAGGUUGGGUGC | PRPF31 | 0.1734
UGUAGAAUUAGCCCAGUGG | ALPPL2 | -0.2304
UUCAAAUCUAGGUCGGUCC | PRKAR1A | -1.812
UAUGGUAGUUGUUGAAGGC | AMER1 | -0.6974
UGGUAUUAAAUGUAGAUGG | KRTAP4-1 | 1.805
UGCGUCUUGAUGCAGAUGG | WSCD2 | 0.5673
UUUGGGAUUGUAGUGGAGA | OR7A17 | 0.311
UAUACGUUCAUUUUUGGUU | ANKRD29 | 0.4072
UUUUCGCUAGUGGAAAUUU | RASL11A | 0.7022
UUUCUAGAAAUCUAAAUUG | FAM136BP | 0.5518
UCGCUCUUCAGCAUGAUUC | FBXL5 | 0.6532
UUGAAUACCACUGUCGUUG | DNAJC10 | 1.056
UCUGUCUAAACGAUCCUCC | TCF12 | -0.4479
UCCUUUAUCUGUACGGAAC | SAE1 | -0.3673
UAAGCGGCAAUCCGUAUGC | NLRP4 | 0.7669
AGAAUAACAAAGUUCCUAG | DLGAP1-AS1 | -0.09362
UCCUUUCGAAGUGAUAUCC | EMC7 | 2.163
UUCGUUAUCCAGACUUGCC | RIPK3 | -1.412
AGACUUAUAAUGAACAGGG | CASP8AP2 | -1.413
UUCUUCACGAGCUCGAUGG | ACVR2B | -0.3613
UUUUCCAUUCGGUAGUAGC | NPHS2 | -1.242
UCCUCGAUAUCAAAUGUCC | B3GNT2 | 0.1884
UUUGGUCUGACAUCCACGA | SERP2 | -0.9648
AGAUUUAACAGCCUUAAUG | TMEM39A | 0.02784
UGUUGUACACGUGCAGUUC | HCFC1 | 0.5663
UUUGAGUCUGUGCUUUUGG | TUSC5 | 0.0574
UCAAUAACCUGGUCUGCCG | FEZ2 | 0.5393
UUCAUUCACACCAAAGUCC | ANXA1 | 0.1154
UCAGGAAGAAGUAUUCGUG | FADS2 | -0.5257
UGUUAUUGACGAUCACUCC | WBP2 | -0.406
UCUAUAAGAACCUCUCUCG | MTAP | -0.7725
UGUUUACCCAGUCUGAAUG | IL10RB | 0.9054
UAGAUGCAUAUGGACAUGG | HYAL1 | 1.004
UUGUUCUGAGCUGUUGUUC | RARA | -0.01463
UCCAGUAGGAUAACGAUCU | LINGO1 | -0.05181
UUUGUUCCGAUGACCACGG | WDR7 | 3.019
UUUGUCGUAGCGGUGGUCA | DDAH1 | -1.461
ACUCUAACUCCCAAUGUUG | C6orf15 | 1.075
UAAGAAACUCACGCCCACC | B3GNT6 | 0.8436
UUUGAUUCUACAUCACAGC | SHBG | -0.4856
AAAGUCACUUCCUCUCAGC | WDR86 | 1.744
UUUUGAGCAAUCCUUGAAC | HMGB1P22 | -0.008237
UAGGUUUUGUAGUAGAUGA | GAL3ST2 | 0.3929
UUGUAUAUGAAGGAUUUCC | ZNF549 | 0.9492
AUUCGGACUUCAGAAGAGC | ZGRF1 | 0.9876
UCAUGGUCCAAUUCAUUAG | CCDC120 | -1.509
UUUGGUUUCAAACGCAUAG | GRK1 | 0.9048
GGUAGUUCCAGAACUGCGU | TNFRSF6B | 0.5557
UUACUAUUACGUCACAGGG | LOC730098 | 0.173
UAAUGGAACAAUCGGGACC | PLGRKT | 0.718
UGACAAUUUACAUCGGCUC | ANKMY2 | 0.4585
UUAUUUCUAAAGGUGUUCU | TWIST1 | 0.3272
UAUACAGAUUGAAUUGUCC | LOC728485 | 0.4936
UAUAGUAAUCAGUUCUUUU | LOC728114 | -0.7192
UUUCUGAUAGCGGCGGAUU | HIST1H3F | -1.276
UAAUGUUCCUUUAUGUUCC | LOC643201 | 0.5806
UAAAGUAGUACCGAUUACC | MID1IP1 | -0.5072
AACGGUAUACCCGACAUAC | RAD54L2 | -0.198
UCCUUUGUCAUAUAAUUCC | DNAJA1 | -0.3404
AACUAUUAACGUAGUAUGC | MCTP1 | 0.5712
AUCUCUAUCCCGGUAGUAG | APOBEC3D | -0.7194
UAAGGAUCUUGCGCUUGGG | SCUBE3 | -0.1332

The last 6 entries again:

Result for UAAAGUAGUACCGAUUACC against MID1IP1 was seed-corrected z-score -0.5072.
Result for AACGGUAUACCCGACAUAC against RAD54L2 was seed-corrected z-score -0.198.
Result for UCCUUUGUCAUAUAAUUCC against DNAJA1 was seed-corrected z-score -0.3404.
Result for AACUAUUAACGUAGUAUGC against MCTP1 was seed-corrected z-score 0.5712.
Result for AUCUCUAUCCCGGUAGUAG against APOBEC3D was seed-corrected z-score -0.7194.
Result for UAAGGAUCUUGCGCUUGGG against SCUBE3 was seed-corrected z-score -0.1332.